Several values for one entry are separate records, joined by “and”; a condition that tells them apart may be missing. Identical values can stand only once. The list shows a part of the results. These are further read-outs of the screen, such as a control signal, another cell line or another target. No call is given for them. The list favours compounds with an active or inconclusive main result. The note in brackets gives the kind of curve behind each potency; many fits are weak.
Assay: qHTS Assay for Modulators of Lamin A Splicing
Conditions: HeLa LMNA splicing GFP/RFP minigene ratio, 48 h
Summary of the method: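 S3 HeLa cells stably expressing lamin A-EGFP splicing minigene plus DsRed2, 600 cells/well, 48 h compound exposure at 37C. Laser-scanning cytometry; analysed as GFP (500-530 nm)/RFP (575-640 nm) total intensity ratio; 0.5% DMSO vehicle.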

[1] = measured here: GFP splicing reporter channel
[2] = measured here: RFP viability control channel

Row | SMILES | AC50 [1] | AC50 [2]
1 | CC(C)(C)NCC(=O)N/N=C/c1ccc(OCc2ccccc2)cc1 | 1.58 µM [falling, full curve] | –
2 | COc1ccc(NS(=O)(=O)c2cc(NC(=O)c3cnccn3)ccc2OC)cc1Br | – | 31.6 µM [rising, single point]
3 | CC(=O)C(C(C)=O)c1c(Cl)c(O)c(O)c2c(C(=O)c3ccccc3)coc12 | 2.51 µM [falling, single point] | 35.5 µM [falling, single point]
4 | COc1cc(C(=S)N2CCCC2)cc(Cl)c1OCC(=O)Nc1ccc(C)cc1C | – | 20 µM [rising, single point]
5 | NNC(=O)c1cccc(COc2ccc3c(c2)CCC3)c1 | – | 1 µM [falling, full curve, poor fit]
6 | CCCCC[C@H](O)/C=C/[C@@H]1[C@@H](CCCCCCC(=O)O)[C@@H](O)C[C@H]1O | 2.24 µM [rising, partial curve, poor fit] | –
7 | COc1ccc(C2Nc3cccc4cccc(c34)N2)cc1 | 1.41 µM [falling, full curve] | –
8 | O=C(O)c1ccc(Cl)c(N2C(=O)Nc3ccccc3N2O)c1 | 35.5 µM [falling, single point] | –
9 | O=C(c1ccc(COc2ccccc2Cl)o1)N1CCCC1 | 12.6 µM [rising, single point] | 20 µM [rising, partial curve, poor fit]
10 | Cc1cc2c(OCC(O)CNC3CCCCC3)cccc2[nH]1 (centres undefined) | 0.398 µM [rising, full curve] | 0.0316 µM [rising, full curve, poor fit]
11 | CC1CN(S(=O)(=O)c2cccc(C(=O)NCc3ccc4c(c3)OCO4)c2)CC(C)O1 (centres undefined) | – | 12.6 µM [rising, partial curve]
12 | CC(C)(Oc1ccc(C2CC2(Cl)Cl)cc1)C(=O)O (centres undefined) | – | 2.82 µM [rising, partial curve, poor fit] and 5.62 µM [rising, single point]
13 | Fc1ccc(-c2nnc3sc(C4COc5ccccc5O4)nn23)cc1 (centres undefined) | 14.1 µM [rising, single point] | –
14 | NC(=O)c1cc(C(N)=O)nc(Cl)n1 | – | 1.58 µM [falling, partial curve, poor fit]
15 | CC(=O)Oc1ccc(C(=O)Nc2cc(NC(=O)c3ccc(OC(C)=O)cc3)cc(C(=O)NC(C)(C)C)c2)cc1 | 25.1 µM [rising, single point] | 25.1 µM [rising, single point]
16 | COc1cc(/C=N/NS(=O)(=O)c2ccc3ccccc3c2)ccc1OCCN1CCOCC1 | 0.0562 µM [rising, full curve, poor fit] | –
17 | CNC(=O)N/N=C(\N)c1ccccn1 | – | 10 µM [falling, partial curve]
18 | CC(=O)c1c(C)[nH]c(C(=O)OCc2c(F)cccc2Cl)c1C | 12.6 µM [falling, partial curve, poor fit] | 1.26 µM [falling, full curve, poor fit]
19 | O=C(NCCc1ccc(Cl)cc1)C1CCC(CNc2nc(=S)[nH]c3ccccc23)CC1 (centres undefined) | – | 35.5 µM [falling, single point]

Row | SMILES | AC50 [1] | AC50 [2]
20 | COc1ccc(-c2[nH]ncc2CN2CCC(O)(c3ccc(Cl)cc3)CC2)cc1 | – | 5.62 µM [rising, full curve, poor fit]
21 | COc1cc2c(cc1NC(=O)CN(C)Cc1cccc(OC)c1OC)oc1ccccc12 | – | 4.47 µM [rising, partial curve]
22 | COc1cccc(-n2ccnc2SCC(=O)Nc2ccccc2)c1 | – | 25.1 µM [rising, single point]
23 | O=C(/C=C/Sc1ccccc1)c1ccccc1 | 35.5 µM [falling, single point] | 2.51 µM [falling, partial curve, poor fit]
24 | O=C(COc1ccccc1)N/N=C/c1ccc([N+](=O)[O-])o1 | – | 17.8 µM [rising, partial curve]
25 | Oc1ccc(CN2CCCc3ccccc32)c2cccnc12 | – | 35.5 µM [rising, single point]
26 | N=c1ccn(Cc2ccc(Cl)cc2Cl)cc1 | – | 2.82 µM [rising, full curve]
27 | Cc1cccc(NC(=O)/C=C/c2ccc3c(c2)OCO3)n1 | – | 35.5 µM [rising, single point]
28 | CCC(Sc1nnc(-c2ccc(C)c(Cl)c2)n1CC)C(=O)Nc1nccs1 (centres undefined) | 2.24 µM [rising, full curve, poor fit] | 10 µM [rising, partial curve]
29 | COC(=O)c1cccc(NC(=O)CSc2nc3cccnc3n2C)c1 | – | 11.2 µM [rising, partial curve]
30 | CC(C)(C)c1cccc(OCCCSc2ncccn2)c1 | – | 31.6 µM [rising, single point]
31 | COc1cccc(OCCNC(=O)c2ccccc2Sc2ccccc2C#N)c1 | – | 17.8 µM [rising, partial curve]
32 | CC1=CN2C(=N)/C(=C/c3ccc([N+](=O)[O-])o3)C(=O)N=C2S1 | 35.5 µM [falling, single point] | –
33 | Cc1csc(=Nc2c(C)n(C)n(-c3ccccc3)c2=O)n1Cc1ccccc1 | 22.4 µM [rising, single point] | 14.1 µM [rising, single point]
34 | CCc1nc2c(cnn2-c2ccc(F)cc2)c(=O)n1-c1ccc(N2CCC(C)CC2)cc1 | – | 2.82 µM [rising, partial curve]
35 | COc1ccc(-c2[nH]nc3c2C(c2ccc(OC(=O)N4CCOCC4)cc2)C(C#N)=C(N)O3)cc1 (centres undefined) | – | 10 µM [rising, partial curve]
36 | CCOc1ccc(NC(=S)N(CCc2c(C)[nH]c3ccc(C)cc23)Cc2ccco2)cc1 | 7.08 µM [rising, partial curve] | –
37 | CCOC(=O)c1ccc(NC(=O)CC2SCCNC2=O)cc1 (centres undefined) | – | 0.00891 µM [rising, full curve, poor fit]
38 | Cn1cc(-c2nc3cnc(Oc4ccccc4)nc3n(Cc3cccs3)c2=O)c2ccccc21 | 17.8 µM [falling, partial curve] | 12.6 µM [falling, partial curve]

Row | SMILES | AC50 [1] | AC50 [2]
39 | COC(=O)c1ccc(/C=C/c2ccc3cccc(OC(C)=O)c3n2)cc1 | – | 31.6 µM [rising, single point]
40 | Cc1ccc(C)c(Nc2ccc(C(=O)NCCc3ccccc3)cn2)c1 | – | 7.94 µM [rising, partial curve]
41 | COc1cc(NC(=O)c2cc([N+](=O)[O-])ccc2Br)ccc1NC(=O)c1ccco1 | – | 35.5 µM [rising, single point]
42 | CCC(C)NS(=O)(=O)c1ccc(S(=O)(=O)N2CCCC3(CCCCC3)C2)cc1 (centres undefined) | – | 7.08 µM [rising, partial curve]
43 | COC(=O)c1ccc(/C=C(\C#N)C(=O)NC(C)c2ccccc2)cc1 (centres undefined) | 25.1 µM [falling, single point] | 35.5 µM [falling, single point]
44 | COc1ccc(C2=NN(CC(=O)NCCCN(C)c3ccccc3)C(=O)CC2)cc1 | 3.16 µM [rising, single point] | –
45 | Cc1nc(SCC(=O)c2cc3ccccc3oc2=O)c(C#N)c(-c2ccccc2)c1C(=O)Nc1ccccc1 | – | 8.91 µM [rising, partial curve, poor fit]
46 | Cc1ccc2c(=O)cc(CSc3nnc(-c4ccccc4)n3C)[nH]c2c1C | 0.0251 µM [rising, full curve, poor fit] | 0.02 µM [rising, full curve, poor fit]
47 | CCOC(=O)Cn1c(=O)n(C2CCCCC2)c2nc(-c3ccc(Cl)cc3)nc(C(N)=O)c21 | 5.62 µM [rising, partial curve] | 4.47 µM [rising, partial curve, poor fit]
48 | CCCNC(=O)c1cc(-c2ccco2)on1 | 35.5 µM [falling, single point] | 35.5 µM [falling, single point]
49 | COC(=O)c1cc2c(ccn2-c2ccc(F)cc2)n1Cc1cccc(OC)c1 | – | 11.2 µM [rising, partial curve, poor fit]
50 | Cc1cc2ncc(C(N)=O)cn2n1 | 11.2 µM [rising, partial curve] | 11.2 µM [rising, partial curve, poor fit]
51 | CSc1ccc(CNC(=O)c2ccccc2NC(=O)c2nsc3ccccc23)cc1 | 3.98 µM [rising, partial curve] | 5.62 µM [rising, partial curve]
52 | CCOC(=O)c1cnc(SCC(=O)Nc2ccccc2C(=O)OC)nc1N | – | 28.2 µM [rising, single point]
53 | CCCCN1CCc2nc(N3CCN(c4ncccn4)CC3)ncc2C1 | – | 15.8 µM [rising, single point]
54 | Cc1ccc(NC(=O)CSc2nc3c([nH]c4ccccc43)c(=O)n2-c2ccccc2)c(C)c1 | – | 10 µM [rising, partial curve, poor fit]
55 | Cc1ccc(N2CCN(C(=S)c3ccc(N(C)C)cc3)CC2)cc1 | 0.891 µM [rising, single point] | 8.91 µM [rising, partial curve]
56 | Cc1cnc(C(=O)Nc2ccc(C(C)C)cc2)cn1 | – | 35.5 µM [rising, single point]
57 | COCCn1c(CN2CCN(c3ccc(OC)cc3)CC2)nc2c1c(=O)n(C)c(=O)n2C | 11.2 µM [rising, single point] | 17.8 µM [rising, single point]

From PubChem BioAssay AID1487 (National Center for Advancing Translational Sciences (NCATS), 2009)
